# Experimental data published in the supplement of paper PMC12067093, “Discovery and optimisation of a covalent ligand for TRIM25 and its application to targeted protein ubiquitination” (Chemical Science, 2025).
# Sequences of proteins named here, by UniProt entry; tags and fusion partners are left off. A change or cut given only in a name is not applied to a line headed by its entry.
# UniProt Q9UKG1: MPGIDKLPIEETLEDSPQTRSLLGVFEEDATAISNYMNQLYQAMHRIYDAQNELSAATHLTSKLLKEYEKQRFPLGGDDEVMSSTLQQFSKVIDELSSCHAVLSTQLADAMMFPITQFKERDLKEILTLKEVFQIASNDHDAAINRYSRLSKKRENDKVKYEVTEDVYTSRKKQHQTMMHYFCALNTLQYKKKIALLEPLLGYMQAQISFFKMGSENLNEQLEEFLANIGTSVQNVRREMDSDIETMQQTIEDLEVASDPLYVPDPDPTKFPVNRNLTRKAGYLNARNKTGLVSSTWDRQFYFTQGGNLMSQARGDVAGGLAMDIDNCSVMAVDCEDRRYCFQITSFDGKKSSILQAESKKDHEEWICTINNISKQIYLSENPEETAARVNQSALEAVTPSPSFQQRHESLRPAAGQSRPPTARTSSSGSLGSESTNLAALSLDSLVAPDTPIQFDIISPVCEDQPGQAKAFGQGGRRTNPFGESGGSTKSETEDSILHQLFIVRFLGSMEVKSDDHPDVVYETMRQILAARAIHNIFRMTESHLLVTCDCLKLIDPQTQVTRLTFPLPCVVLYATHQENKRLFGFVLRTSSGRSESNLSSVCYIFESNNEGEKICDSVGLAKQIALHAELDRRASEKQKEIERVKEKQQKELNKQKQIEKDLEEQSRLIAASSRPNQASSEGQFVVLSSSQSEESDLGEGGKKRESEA
# UniProt O14497, whole entry, looked up: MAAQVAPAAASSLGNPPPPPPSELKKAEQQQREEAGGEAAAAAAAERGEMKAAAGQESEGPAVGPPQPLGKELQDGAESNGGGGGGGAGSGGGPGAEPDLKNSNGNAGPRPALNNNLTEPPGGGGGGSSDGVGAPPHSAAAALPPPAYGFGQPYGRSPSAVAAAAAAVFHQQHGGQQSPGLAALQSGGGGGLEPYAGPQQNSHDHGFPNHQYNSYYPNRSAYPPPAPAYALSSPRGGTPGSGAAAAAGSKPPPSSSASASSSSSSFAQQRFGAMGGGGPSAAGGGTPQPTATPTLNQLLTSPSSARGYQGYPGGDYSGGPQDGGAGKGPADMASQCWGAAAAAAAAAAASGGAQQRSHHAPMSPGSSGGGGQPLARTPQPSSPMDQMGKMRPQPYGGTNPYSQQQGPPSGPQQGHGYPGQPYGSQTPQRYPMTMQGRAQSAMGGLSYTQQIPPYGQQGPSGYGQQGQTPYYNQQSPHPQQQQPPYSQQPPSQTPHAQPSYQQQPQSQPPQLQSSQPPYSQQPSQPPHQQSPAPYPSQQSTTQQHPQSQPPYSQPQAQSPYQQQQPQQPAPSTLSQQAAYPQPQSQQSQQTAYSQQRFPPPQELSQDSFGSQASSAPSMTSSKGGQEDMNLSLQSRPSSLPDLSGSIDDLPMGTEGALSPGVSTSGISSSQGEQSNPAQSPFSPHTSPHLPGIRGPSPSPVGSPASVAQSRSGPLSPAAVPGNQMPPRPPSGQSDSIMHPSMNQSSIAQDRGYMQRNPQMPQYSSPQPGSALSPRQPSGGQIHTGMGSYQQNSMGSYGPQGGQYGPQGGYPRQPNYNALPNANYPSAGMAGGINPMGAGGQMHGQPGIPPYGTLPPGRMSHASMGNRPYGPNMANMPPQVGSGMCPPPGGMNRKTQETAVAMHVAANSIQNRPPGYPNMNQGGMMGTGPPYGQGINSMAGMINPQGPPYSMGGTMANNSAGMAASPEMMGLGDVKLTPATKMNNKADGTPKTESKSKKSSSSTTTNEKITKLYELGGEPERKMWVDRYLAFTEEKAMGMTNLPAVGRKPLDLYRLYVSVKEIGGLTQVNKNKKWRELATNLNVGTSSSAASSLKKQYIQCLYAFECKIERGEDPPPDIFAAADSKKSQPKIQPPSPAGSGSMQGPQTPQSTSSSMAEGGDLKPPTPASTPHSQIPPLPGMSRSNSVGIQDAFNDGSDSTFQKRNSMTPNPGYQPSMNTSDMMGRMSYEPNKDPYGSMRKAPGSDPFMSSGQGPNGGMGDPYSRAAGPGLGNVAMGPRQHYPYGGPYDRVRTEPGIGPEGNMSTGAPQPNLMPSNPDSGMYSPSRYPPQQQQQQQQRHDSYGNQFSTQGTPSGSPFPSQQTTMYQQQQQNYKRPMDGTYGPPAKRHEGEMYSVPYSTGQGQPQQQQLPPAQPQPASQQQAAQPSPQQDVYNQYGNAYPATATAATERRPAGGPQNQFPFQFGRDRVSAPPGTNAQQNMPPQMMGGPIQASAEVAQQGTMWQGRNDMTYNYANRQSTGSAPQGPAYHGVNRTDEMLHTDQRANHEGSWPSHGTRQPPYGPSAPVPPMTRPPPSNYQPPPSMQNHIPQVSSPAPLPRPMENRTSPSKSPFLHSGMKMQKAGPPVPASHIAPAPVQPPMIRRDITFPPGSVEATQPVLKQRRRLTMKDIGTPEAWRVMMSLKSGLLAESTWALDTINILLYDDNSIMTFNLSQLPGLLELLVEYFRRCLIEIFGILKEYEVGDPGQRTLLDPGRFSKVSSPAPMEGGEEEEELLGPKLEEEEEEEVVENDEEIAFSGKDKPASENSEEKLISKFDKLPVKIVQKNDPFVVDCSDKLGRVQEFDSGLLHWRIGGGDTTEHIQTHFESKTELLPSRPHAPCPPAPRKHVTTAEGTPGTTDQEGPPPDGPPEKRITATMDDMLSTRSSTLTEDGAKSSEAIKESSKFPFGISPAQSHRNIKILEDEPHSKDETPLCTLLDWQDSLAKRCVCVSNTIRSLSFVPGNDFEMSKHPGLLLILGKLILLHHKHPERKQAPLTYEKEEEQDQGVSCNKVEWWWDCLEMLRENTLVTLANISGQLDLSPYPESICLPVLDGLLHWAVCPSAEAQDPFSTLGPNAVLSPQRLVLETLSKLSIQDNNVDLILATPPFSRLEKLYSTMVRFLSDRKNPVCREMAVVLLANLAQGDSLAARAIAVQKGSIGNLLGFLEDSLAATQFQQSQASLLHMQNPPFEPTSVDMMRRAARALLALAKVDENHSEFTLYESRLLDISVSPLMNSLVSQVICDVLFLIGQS
# UniProt Q9NZN5: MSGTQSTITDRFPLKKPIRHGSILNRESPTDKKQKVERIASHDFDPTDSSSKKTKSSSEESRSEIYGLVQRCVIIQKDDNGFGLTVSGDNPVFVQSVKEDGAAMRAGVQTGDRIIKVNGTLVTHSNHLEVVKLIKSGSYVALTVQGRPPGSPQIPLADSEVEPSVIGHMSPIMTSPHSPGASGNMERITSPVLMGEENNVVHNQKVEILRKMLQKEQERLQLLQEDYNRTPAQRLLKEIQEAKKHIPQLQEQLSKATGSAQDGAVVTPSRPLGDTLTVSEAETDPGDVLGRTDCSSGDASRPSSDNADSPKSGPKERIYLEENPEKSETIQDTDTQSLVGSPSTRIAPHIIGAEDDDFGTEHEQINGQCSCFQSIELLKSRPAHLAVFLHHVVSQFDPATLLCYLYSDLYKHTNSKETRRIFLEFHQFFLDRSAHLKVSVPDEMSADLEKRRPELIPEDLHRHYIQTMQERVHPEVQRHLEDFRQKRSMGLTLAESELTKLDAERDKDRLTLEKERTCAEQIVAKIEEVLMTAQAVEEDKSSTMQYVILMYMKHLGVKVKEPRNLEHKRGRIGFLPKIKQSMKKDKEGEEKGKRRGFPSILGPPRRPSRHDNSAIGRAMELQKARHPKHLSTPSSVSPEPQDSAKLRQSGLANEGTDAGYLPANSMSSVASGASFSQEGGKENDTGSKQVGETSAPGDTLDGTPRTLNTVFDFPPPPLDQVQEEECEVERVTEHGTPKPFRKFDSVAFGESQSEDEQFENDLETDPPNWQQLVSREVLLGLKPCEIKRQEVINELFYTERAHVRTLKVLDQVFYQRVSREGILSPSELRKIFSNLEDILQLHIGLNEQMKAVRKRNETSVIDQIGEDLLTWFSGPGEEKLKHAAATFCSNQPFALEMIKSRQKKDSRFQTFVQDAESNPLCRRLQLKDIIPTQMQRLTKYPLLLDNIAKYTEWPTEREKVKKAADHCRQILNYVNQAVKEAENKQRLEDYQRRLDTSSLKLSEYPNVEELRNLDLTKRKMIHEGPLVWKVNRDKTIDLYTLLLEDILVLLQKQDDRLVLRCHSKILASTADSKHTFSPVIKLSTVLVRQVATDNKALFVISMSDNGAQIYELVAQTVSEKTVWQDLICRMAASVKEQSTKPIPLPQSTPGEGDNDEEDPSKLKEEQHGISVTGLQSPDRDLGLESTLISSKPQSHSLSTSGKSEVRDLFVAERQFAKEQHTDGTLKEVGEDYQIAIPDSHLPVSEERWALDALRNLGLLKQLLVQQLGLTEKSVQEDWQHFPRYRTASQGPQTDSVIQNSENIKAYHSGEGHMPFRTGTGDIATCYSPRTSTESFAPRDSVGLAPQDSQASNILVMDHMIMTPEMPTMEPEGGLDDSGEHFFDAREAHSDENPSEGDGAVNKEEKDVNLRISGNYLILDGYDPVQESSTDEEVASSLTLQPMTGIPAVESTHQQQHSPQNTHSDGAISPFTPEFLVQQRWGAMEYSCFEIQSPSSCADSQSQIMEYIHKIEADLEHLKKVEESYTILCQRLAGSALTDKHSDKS
# UniProt P27540, whole entry, looked up: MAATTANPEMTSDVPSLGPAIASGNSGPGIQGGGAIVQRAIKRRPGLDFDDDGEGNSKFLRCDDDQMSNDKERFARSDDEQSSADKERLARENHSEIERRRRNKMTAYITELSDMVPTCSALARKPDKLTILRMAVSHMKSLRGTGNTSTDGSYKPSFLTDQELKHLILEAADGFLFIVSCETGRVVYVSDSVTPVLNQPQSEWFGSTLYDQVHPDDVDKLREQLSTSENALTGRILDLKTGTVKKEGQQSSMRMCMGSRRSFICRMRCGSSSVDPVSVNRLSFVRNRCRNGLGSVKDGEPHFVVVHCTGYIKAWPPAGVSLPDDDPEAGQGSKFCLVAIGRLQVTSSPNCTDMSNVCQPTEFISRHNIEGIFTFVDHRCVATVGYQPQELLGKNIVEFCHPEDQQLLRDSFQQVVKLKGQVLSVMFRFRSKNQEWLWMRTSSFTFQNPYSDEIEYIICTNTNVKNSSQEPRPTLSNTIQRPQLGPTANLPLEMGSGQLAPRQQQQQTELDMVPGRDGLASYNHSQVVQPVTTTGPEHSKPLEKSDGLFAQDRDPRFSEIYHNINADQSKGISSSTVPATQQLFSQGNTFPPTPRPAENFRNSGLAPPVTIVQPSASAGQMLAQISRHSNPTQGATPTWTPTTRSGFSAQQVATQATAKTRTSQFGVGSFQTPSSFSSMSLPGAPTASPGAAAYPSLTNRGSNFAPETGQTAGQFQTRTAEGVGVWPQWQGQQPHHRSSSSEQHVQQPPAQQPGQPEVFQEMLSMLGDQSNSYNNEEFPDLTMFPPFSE
# UniProt P10398: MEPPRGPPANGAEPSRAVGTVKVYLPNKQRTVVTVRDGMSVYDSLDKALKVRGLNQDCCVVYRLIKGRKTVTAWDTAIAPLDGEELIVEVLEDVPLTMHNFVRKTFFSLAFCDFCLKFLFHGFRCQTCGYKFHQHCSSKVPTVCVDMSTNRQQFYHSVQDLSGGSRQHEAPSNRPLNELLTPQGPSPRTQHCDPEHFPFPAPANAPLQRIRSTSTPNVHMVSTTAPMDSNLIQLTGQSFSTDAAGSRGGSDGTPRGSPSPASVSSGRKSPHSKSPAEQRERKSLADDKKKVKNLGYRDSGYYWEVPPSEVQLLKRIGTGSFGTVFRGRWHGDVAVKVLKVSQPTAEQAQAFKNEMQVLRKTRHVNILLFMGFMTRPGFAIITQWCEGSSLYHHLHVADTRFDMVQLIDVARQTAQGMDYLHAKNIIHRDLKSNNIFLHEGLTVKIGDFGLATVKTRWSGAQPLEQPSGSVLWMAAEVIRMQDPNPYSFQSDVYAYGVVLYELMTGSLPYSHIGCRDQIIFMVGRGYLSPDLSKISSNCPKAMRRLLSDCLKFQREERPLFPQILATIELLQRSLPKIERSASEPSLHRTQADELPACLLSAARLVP
# UniProt O95376: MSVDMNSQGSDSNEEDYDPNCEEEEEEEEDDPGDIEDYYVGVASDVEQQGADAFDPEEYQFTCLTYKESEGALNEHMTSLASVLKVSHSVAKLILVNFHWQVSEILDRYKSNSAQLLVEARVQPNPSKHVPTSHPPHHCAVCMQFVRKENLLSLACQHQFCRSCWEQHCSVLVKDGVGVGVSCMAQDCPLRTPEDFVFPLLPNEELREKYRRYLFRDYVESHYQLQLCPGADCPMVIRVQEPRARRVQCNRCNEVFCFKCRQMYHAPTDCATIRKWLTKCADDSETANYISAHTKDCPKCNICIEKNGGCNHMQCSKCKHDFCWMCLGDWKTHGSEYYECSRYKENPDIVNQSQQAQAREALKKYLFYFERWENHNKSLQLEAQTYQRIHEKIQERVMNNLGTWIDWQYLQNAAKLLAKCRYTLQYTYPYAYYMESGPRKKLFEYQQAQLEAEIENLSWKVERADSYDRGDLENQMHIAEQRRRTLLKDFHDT
# Some of the results follow.
# Compound: Cc1cc(ccc1-c1ccccc1)C(=O)N1CCCN(CC1)C(=O)CCl [compound 10]
# Assay: probe-labelled cysteine peptide fold change vs DMSO (competition) (log2 fold change); higher = less target engagement (more negative = stronger competition)
# Conditions: THP-1, incubation time: 4 h
# 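Also: competitive profiling in live THP-1 cells: cysteine peptides tagged with an iodoacetamide desthiobiotin (IA-DTB) probe, intensity after compound treatment relative to DMSO-treated cells.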
Target,probe-labelled cysteine peptide fold change (10 µM),probe-labelled cysteine peptide fold change (50 µM)
ARMC8_Q8IUR7_578_EQTLCILANIADGTTAK (UniProt Q8IUR7),-0.0305,0.351
ARHGAP45_Q92619_809_LCQAFENGK (UniProt Q92619),0.077,0.0355
AQR_O60306_96_AYLMSICCMVNEK (UniProt O60306),0.0481,0.225
ARHGEF16_Q5VV41_438_LPLLMDTLCLK (UniProt Q5VV41),0.117,0.442
ARMH3_Q5T2E6_105_VVNALQTLCALIR (UniProt Q5T2E6),-0.0975,0.888
ARPC4_P59998_21_ATLQAALCLENFSSQVVER (UniProt P59998),0.202,0.252
ARHGEF18_Q6ZSZ5_295_ECVNGHQLLQGTFSGPSSCPLCGKPFLSSASLK (UniProt Q6ZSZ5),-0.0564,-0.0988
APPL1_Q9UKG1_183_QHQTMMHYFCALNTLQYK (UniProt Q9UKG1),-0.0142,0.0612
ARPC1A_Q92747_13_SLHQFLLEPITCHAWNR (UniProt Q92747),0.253,0.579
ARID1A_O14497_1827_NDPFVVDCSDK (UniProt O14497),-0.265,0.0739
ARID2_Q68CP9_1814_CLYELNFTVQSK (UniProt Q68CP9),0.171,0.0348
ARHGAP30_Q7Z6I6_965_IHVAPANPCPRPGR (UniProt Q7Z6I6),-0.0691,-0.156
ARHGEF6_Q15052_182_QTNEDELSVCK (UniProt Q15052),0.0773,0.00472
ARF3_P61204_159_HRNWYIQATCATSGDGLYEGLDWLANQLK (UniProt P61204),-0.312,-0.322
APPL1_Q9UKG1_368_DHEEWICTINNISK (UniProt Q9UKG1),-0.0292,0.0951
ARAP3_Q8WWN8_527_QCAGQHR (UniProt Q8WWN8),-0.193,0.337
ARRB1_P49407_251_CPVAMEEADDTVAPSSTFCK (UniProt P49407),0.0122,0.108
ARHGEF12_Q9NZN5_784_EVLLGLKPCEIKR (UniProt Q9NZN5),-0.122,-0.578
ARHGAP45_Q92619_528_SATISYYQMMHMQTAPLPVHFQMLCESSK (UniProt Q92619),-0.125,-0.0917
ARHGEF17_Q96PE2_1439_LELCATRPEGTDSYIFEFPHPDAR (UniProt Q96PE2),-0.165,-0.0257
ARMC5_Q96C12_273_ACAEQLSLGGGLGPLVSLASHPK (UniProt Q96C12),0.113,-0.586

Target,probe-labelled cysteine peptide fold change (10 µM),probe-labelled cysteine peptide fold change (50 µM)
ARL6IP4_Q66PJ3_243_ASTAPGAEASPSPCITER (UniProt Q66PJ3),-0.178,0.108
ARNT_P27540_269_CGSSSVDPVSVNR (UniProt P27540),-0.375,-0.756
ARAF_P10398_538_ISSNCPK (UniProt P10398),0.0327,-0.312
ARID1B_Q8NFD5_1919_SRDETPLCTIAHWQDSLAK (UniProt Q8NFD5),-0.0638,0.119
ARAP1_Q96P48_376_FISVACISHVAAIGDQKFEVITNNR (UniProt Q96P48),0.28,-0.397
ARID2_Q68CP9_538_FACQWLNAHFEVNPDCSVSR (UniProt Q68CP9),0.105,0.325
APPL1_Q9UKG1_341_YCFQITSFDGK (UniProt Q9UKG1),0.0889,0.137
APPL1_Q9UKG1_570_LTFPLPCVVLYATHQENKR (UniProt Q9UKG1),-0.138,-0.0139
ARL6_Q9H0F7_22_EVHVLCLGLDNSGK (UniProt Q9H0F7),-0.0801,0.188
ARHGEF2_Q92974_68_EALICPTCNVTIHNR (UniProt Q92974),-0.00613,0.0522
ARHGAP25_P42331_448_CFLTSAFQGANSSK (UniProt P42331),-0.526,-1.52
ARHGAP27_Q6ZUM4_830_MLFQHLCR (UniProt Q6ZUM4),0.0553,0.0467
ARMC1_Q9NVT9_69_YLAECR (UniProt Q9NVT9),-0.137,-0.537
ARHGEF2_Q92974_573_TCPSREDFPLIETEDEAYLR (UniProt Q92974),-0.0619,-0.269
APP_P05067_158_ETCSEK (UniProt P05067),-0.247,-0.328
ARMH3_Q5T2E6_80_DNINCLFQHCIQALGEEHPIR (UniProt Q5T2E6),-0.0987,0.413
ARIH1_Q9Y4X5_269_YQHLITNSFVECNR (UniProt Q9Y4X5),-0.0171,0.0363
ARMT1_Q9H993_398_WEFSVPFHQALNGFHPAPLCTIR (UniProt Q9H993),-0.184,-0.061
ARHGAP45_Q92619_747_CLETLAIQCGHK (UniProt Q92619),-0.0524,-0.154
APPL1_Q9UKG1_570_LTFPLPCVVLYATHQENK (UniProt Q9UKG1),-0.352,0.17
ARHGEF2_Q92974_478_KLIHDGCLLWK (UniProt Q92974),-0.0509,-0.328

Target,probe-labelled cysteine peptide fold change (10 µM),probe-labelled cysteine peptide fold change (50 µM)
ARNT_P27540_336_FCLVAIGR (UniProt P27540),-0.202,-0.013
ARAP1_Q96P48_803_ASEIVCLAVPPPDTHGFEHTFEVYTEGER (UniProt Q96P48),-0.273,0.107
ARAF_P10398_597_TQADELPACLLSAAR (UniProt P10398),-0.464,-0.595
ARID2_Q68CP9_525_FACQWLNAHFEVNPDCSVSR (UniProt Q68CP9),0.229,0.283
ARMC6_Q6NXE6_121_FCDQCK (UniProt Q6NXE6),-0.142,-0.663
ARMC1_Q9NVT9_40_AIVQDQGCLPGLILFMDHPNPPVVHSALLALR (UniProt Q9NVT9),-0.0298,0.0978
ARIH1_Q9Y4X5_418_YLFYCNR (UniProt Q9Y4X5),0.0904,0.506
ARNT_P27540_400_NIVEFCHPEDQQLLR (UniProt P27540),0.142,-0.0294
ARHGAP25_P42331_292_DNYSLLSYICR (UniProt P42331),0.0762,-0.065
ARIH2_O95376_183_DGVGVGVSCMAQDCPLR (UniProt O95376),-0.11,-0.232
ARID1B_Q8NFD5_1141_QYIQYLFAFECK (UniProt Q8NFD5),0.186,0.236
ARRB1_P49407_251+269_CPVAMEEADDTVAPSSTFCK (UniProt P49407),0.144,-0.227
ARHGEF6_Q15052_763_QTDECIR (UniProt Q15052),-0.0781,-0.172
ARL3_P36405_118_LSCVPVLIFANK (UniProt P36405),-0.0174,0.052
APRT_P07741_140_VVVVDDLLATGGTMNAACELLGR (UniProt P07741),0.0316,0.118
ARPC1B_O15143_70_IVTCGTDR (UniProt O15143),0.00133,0.116
ARHGAP45_Q92619_324_IAHNCR (UniProt Q92619),0.112,0.138
ARHGAP30_Q7Z6I6_640_GSGSLEGEAAGCGR (UniProt Q7Z6I6),-0.453,-0.109
ARAF_P10398_192_TQHCDPEHFPFPAPANAPLQR (UniProt P10398),-0.229,-0.296
ARHGEF2_Q92974_306_QALCPGSTR (UniProt Q92974),-0.0731,-0.0082
ARHGEF10L_Q9HCE6_1236_EICSVAIISGGQGYR (UniProt Q9HCE6),-0.0839,-0.0779

Target,probe-labelled cysteine peptide fold change (10 µM),probe-labelled cysteine peptide fold change (50 µM)
ARIH2_O95376_310_NGGCNHMQCSK (UniProt O95376),0.0253,-0.208
ARID2_Q68CP9_1634_KPGQNFMCLWQSCK (UniProt Q68CP9),-0.123,-0.152
APRT_P07741_83_GFLFGPSLAQELGLGCVLIRK (UniProt P07741),-0.0219,-0.44
APTX_Q7Z2E3_286_LGYHAIPSMSHVHLHVISQDFDSPCLK (UniProt Q7Z2E3),-0.158,-0.00366
ARF4_P18085_62_NICFTVWDVGGQDR (UniProt P18085),0.183,0.358
ARL2_P36404_153+157_SHHWCIQGCSAVTGENLLPGIDWLLDDISSR (UniProt P36404),0.254,-0.408
ARNT_P27540_265_RSFICR (UniProt P27540),0.145,0.0564
ARID1A_O14497_1874_TELLPSRPHAPCPPAPR (UniProt O14497),-0.093,-0.032
ARHGEF12_Q9NZN5_921_FQTFVQDAESNPLCR (UniProt Q9NZN5),0.114,0.000695
ARPC1B_O15143_342_CSQFCTTGMDGGMSIWDVK (UniProt O15143),0.0381,0.0275
ARRB1_P49407_140_ACGVDYEVK (UniProt P49407),-0.366,-0.101
ARMCX3_Q9UH62_52_MAEGGSGDVDDAGDCSGAR (UniProt Q9UH62),-0.34,-0.35
ARHGAP35_Q9NRY4_89_SLEDCVECK (UniProt Q9NRY4),0.0619,-0.171
APPL1_Q9UKG1_328_GDVAGGLAMDIDNCSVMAVDCEDRR (UniProt Q9UKG1),-0.305,0.0273
ARL14EP_Q8N8R7_17_TTNECHK (UniProt Q8N8R7),0.04,-0.0714
ARL2_P36404_153_SHHWCIQGCSAVTGENLLPGIDWLLDDISSR (UniProt P36404),0.531,0.198
ARPC1A_Q92747_279_GCLTFVSK (UniProt Q92747),-0.013,0.00475
ARHGAP45_Q92619_153_AHECLGEALR (UniProt Q92619),-0.0917,-0.0239
ARHGEF40_Q8TER5_1262_GCEIDLK (UniProt Q8TER5),-0.15,-0.0894
ARMC8_Q8IUR7_264_CLTYMCR (UniProt Q8IUR7),0.163,-0.117
ARHGDIB_P52566_76_LTLVCESAPGPITMDLTGDLEALK (UniProt P52566),0.0549,0.287

# Some of the entries above, set out differently.
Target | probe-labelled cysteine peptide fold change (10 µM) | probe-labelled cysteine peptide fold change (50 µM)
ARHGEF2_Q92974_68_EALICPTCNVTIHNR (UniProt Q92974) | -0.00613 | 0.0522
APP_P05067_158_ETCSEK (UniProt P05067) | -0.247 | -0.328
ARAP1_Q96P48_803_ASEIVCLAVPPPDTHGFEHTFEVYTEGER (UniProt Q96P48) | -0.273 | 0.107
ARIH2_O95376_310_NGGCNHMQCSK (UniProt O95376) | 0.0253 | -0.208
ARRB1_P49407_140_ACGVDYEVK (UniProt P49407) | -0.366 | -0.101
ARHGEF40_Q8TER5_1262_GCEIDLK (UniProt Q8TER5) | -0.15 | -0.0894
